Data: article PMC5932465
These are yes or no findings as the source states them, for the method shown. In cells and extracts the contact can be indirect. Some results given as binding are weak or reduced against the parent protein; the word gives no strength.

Amino acid sequences for entries named in this document (tags omitted).
UniProt Q9UM54: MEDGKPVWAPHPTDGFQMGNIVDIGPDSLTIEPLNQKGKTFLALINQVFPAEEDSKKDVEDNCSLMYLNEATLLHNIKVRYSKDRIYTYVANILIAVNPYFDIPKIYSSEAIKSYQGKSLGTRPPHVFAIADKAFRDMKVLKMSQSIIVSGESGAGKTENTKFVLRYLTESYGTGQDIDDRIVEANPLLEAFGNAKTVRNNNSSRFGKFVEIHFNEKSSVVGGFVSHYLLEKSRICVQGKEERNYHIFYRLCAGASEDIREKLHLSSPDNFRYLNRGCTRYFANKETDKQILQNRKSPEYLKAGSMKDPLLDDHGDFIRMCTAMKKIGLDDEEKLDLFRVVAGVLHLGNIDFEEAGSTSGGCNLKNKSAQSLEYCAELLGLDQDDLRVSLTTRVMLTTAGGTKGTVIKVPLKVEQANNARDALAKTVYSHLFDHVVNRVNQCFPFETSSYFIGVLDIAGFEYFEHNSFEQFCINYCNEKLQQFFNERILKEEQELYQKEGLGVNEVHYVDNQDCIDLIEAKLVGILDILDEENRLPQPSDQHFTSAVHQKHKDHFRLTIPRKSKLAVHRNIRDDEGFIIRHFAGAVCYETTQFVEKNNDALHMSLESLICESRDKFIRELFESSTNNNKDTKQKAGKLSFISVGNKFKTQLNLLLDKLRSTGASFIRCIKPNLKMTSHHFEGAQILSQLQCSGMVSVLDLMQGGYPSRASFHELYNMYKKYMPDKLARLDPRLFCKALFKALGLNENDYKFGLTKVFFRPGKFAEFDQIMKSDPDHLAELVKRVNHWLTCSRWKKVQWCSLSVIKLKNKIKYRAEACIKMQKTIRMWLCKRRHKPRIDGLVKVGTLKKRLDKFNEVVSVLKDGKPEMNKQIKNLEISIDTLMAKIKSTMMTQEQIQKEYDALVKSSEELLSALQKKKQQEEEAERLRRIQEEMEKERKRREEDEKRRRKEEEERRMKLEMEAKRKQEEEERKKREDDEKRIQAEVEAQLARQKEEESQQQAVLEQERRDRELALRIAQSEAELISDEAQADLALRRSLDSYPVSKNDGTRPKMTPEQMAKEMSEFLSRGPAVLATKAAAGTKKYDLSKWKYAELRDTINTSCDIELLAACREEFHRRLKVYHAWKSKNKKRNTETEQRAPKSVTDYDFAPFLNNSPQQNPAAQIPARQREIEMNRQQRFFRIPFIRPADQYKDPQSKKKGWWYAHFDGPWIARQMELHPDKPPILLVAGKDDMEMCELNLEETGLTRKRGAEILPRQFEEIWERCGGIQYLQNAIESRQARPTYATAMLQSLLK
UniProt O60260: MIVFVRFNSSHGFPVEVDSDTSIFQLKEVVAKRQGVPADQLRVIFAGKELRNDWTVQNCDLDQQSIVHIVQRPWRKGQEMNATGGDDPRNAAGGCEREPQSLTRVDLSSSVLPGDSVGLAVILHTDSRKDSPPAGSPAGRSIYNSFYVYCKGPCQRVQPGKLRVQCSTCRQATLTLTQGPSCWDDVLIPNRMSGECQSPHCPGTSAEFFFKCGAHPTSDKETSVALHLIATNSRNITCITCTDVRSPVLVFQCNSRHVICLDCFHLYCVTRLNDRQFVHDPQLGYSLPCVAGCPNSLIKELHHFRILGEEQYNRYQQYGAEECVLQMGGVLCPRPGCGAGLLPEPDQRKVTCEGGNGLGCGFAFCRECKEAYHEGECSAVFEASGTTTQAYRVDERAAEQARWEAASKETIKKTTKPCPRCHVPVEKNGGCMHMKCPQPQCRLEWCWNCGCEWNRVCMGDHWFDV

Columns and labels:
[1] = target: endogenous MYO6 (myosin VI) (human (endogenous in HEK293)) (UniProt Q9UM54); test: co-IP; HA-Parkin-expressing HEK293 cells, 1 h 10 μM CCCP or untreated; native lysis buffer (50 mM Tris pH 7.4, 100 mM NaCl, 1% NP-40, 5 mM MgCl2, 5 mM ATP); IP with antibodies to HA or Parkin and blot for endogenous MYO6, or IP of endogenous MYO6 and blot for Parkin; IgG control IP
[2] = target: HA-Parkin (UniProt O60260); test: as above

| binding [1] | binding [2] | Substance |
| --- | --- | --- |
| binds | – | HA-Parkin (from UniProt O60260 1-465) (enzyme) |
| – | binds | endogenous MYO6 (myosin VI) (from UniProt Q9UM54 1-1294) |
